Taken from: PubChem BioAssay AID602196 (INSERM, 2012)
The whole screen tested about 23,000 reagents; below is an unselected part. 455 of all reagents (2%) were called active. 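Active includes both protection and sensitisation; some change values fall well beyond the stated -50 to +50 range.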 Unmarked entries are inactive. Not given: the amount of reagent.

Test: 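Modifiers of cisplatin sensitivity in A549 cells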
Cells: human A549 lung cancer cells
Reagents: siRNA pair against human genes
Time to read-out: 48 h transfection before cisplatin; time from cisplatin to read-out not stated
Conditions: cisplatin at a dose killing half of control-siRNA cells; exact dose and duration not given
Measurement: 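Cisplatin cell death as a shift from the 50% death seen with control siRNA; siRNAs toxic or growth-blocking alone scored 0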
Reading the numbers: two-siRNA summed score (-2 to +2): higher = both siRNAs protect from cisplatin killing; -2 means both sensitise; mean protection from cisplatin (shift in death) and protection from cisplatin (shift in death), siRNA C and protection from cisplatin (shift in death), siRNA D: higher = protection from cisplatin killing
Active means: 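Each siRNA scores 0 if harmful alone by LDH or WST-1, otherwise +1 if it reduces and -1 if it increases cisplatin killing; a gene is active when both siRNAs agree (sum +2 or -2)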
Meaning of the calls: active = both siRNAs shift cisplatin killing the same way; inactive = no consistent shift, or siRNA harmful alone

Gene | two-siRNA summed score (-2 to +2) | mean protection from cisplatin (shift in death) (%) | protection from cisplatin (shift in death), siRNA C (%) | protection from cisplatin (shift in death), siRNA D (%)
LOC441848 | 0 | 8.4 | 6.7 | 10.1
ARID5A | 0 | -11.2 | -12.5 | -9.8
LOC391175 | 1 | 12.8 | 19.2 | 6.4
PCDHGA7 | 0 | 2.2 | 4.2 | 0.2
CCL14 | 0 | -4.4 | 4.2 | -12.9
ARID3B | 0 | 10.6 | 4.3 | 16.8
E4F1 | 0 | -1.9 | -11 | 7.2
RAB11FIP4 | 0 | 1.2 | -0.3 | 2.8
CT45A2 | 0 | 0.2 | -9.4 | 9.8
LOC400208 | 0 | 6 | 13.7 | -1.8
LOC339991 | 1 | 8.9 | 4.6 | 13.2
LYL1 | -1 | -16.9 | -27.7 | -6
MYCN | 1 | 10.2 | 1.5 | 18.9
SLC22A1 | 1 | 13.8 | 25.6 | 2.1
LOC440952 | 0 | 11.5 | 12.1 | 10.9

The list goes on; the last 2 above are carried over.
Gene | two-siRNA summed score (-2 to +2) | mean protection from cisplatin (shift in death) (%) | protection from cisplatin (shift in death), siRNA C (%) | protection from cisplatin (shift in death), siRNA D (%)
SLC22A1 | 1 | 13.8 | 25.6 | 2.1
LOC440952 | 0 | 11.5 | 12.1 | 10.9
COL4A5 | -1 | -8.4 | -2.5 | -14.2
LOC388743 | 2 (active) | 27.9 | 31.8 | 24
AREL1 | -1 | -4.1 | -14.9 | 6.6
LRPAP1 | 0 | -11.9 | -18.9 | -4.9
PDCL2 | 0 | 6.4 | 11.3 | 1.4
REEP2 | 0 | -5.1 | -4.1 | -6.1
CD6 | 0 | 12 | 8.5 | 15.4
DPYS | 0 | -1.1 | 4.7 | -6.9
LOC284623 | 0 | -3.4 | 17.8 | -24.6
LOC442689 | 0 | 10.4 | 13.9 | 7
PRRG4 | -1 | -6 | -13 | 1
EAF2 | 0 | 5.6 | 16.7 | -5.5
SLC7A5P2 | 1 | 7.2 | 1.2 | 13.2
CKB | 0 | 3.3 | 18.9 | -12.3
DCSTAMP | 0 | 10.2 | 5.6 | 14.8
SLC6A3 | 0 | 10.6 | 10.3 | 10.8
GPR132 | 0 | -3.5 | 3.3 | -10.3
SNU13 | 0 | 22.7 | 33.6 | 11.9
LINC00661 | 0 | 7.3 | 14.2 | 0.3
NR0B1 | 1 | 3.6 | 14.9 | -7.7
MYBL2 | 0 | 1.6 | 8.7 | -5.4
SMOC2 | 0 | -2 | -1.1 | -2.9
ROGDI | 0 | 5.8 | 1.4 | 10.3
ATP11C | 1 | 12.9 | 15.4 | 10.4
